Reference: PubChem BioAssay AID1508597 (Cure First, 2020)

Aim: 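Knock-downs altering ovarian cancer cell survival with or without PARP inhibitor rucaparib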 (primary screen)
Cell system: human ovarian carcinoma lines grown from tumours: OCI-P5x (papillary serous) and OCI-C5x (clear cell)
Knock-down reagent: siRNA pool against human genes, 1.25 pmol siRNA per well
Timing: 72 h or 96 h, depending on the cell culture
Treatment: rucaparib 20 µM (about IC30) or vehicle, present until read-out
Measured: 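Luminescent ATP-based viability assay read 72 or 96 h after transfection, depending on culture, given as normalised percent viability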
Reading the numbers: viability, normalised: higher = more viable cells remaining
Active means: 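Active when normalised viability falls below 80 percent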
Meaning of the calls: active = viability under 80%; inactive = viability 80% or more
The whole screen tested about 2,100 reagents; this is a part drawn at random. 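Calls flag viability under 80% in either arm, not effects specific to rucaparib; the reference for percent is not stated.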 Not given: the 100% reference.

With NME2 (NME/NM23 nucleoside diphosphate kinase 2), rucaparib or vehicle Rucaparib, cell line OCI-C5x (clear cell), technical replicate 1 the deposit lists viability, normalised (%) = 38.2; active.
For NME2 (NME/NM23 nucleoside diphosphate kinase 2), rucaparib or vehicle Rucaparib, cell line OCI-C5x (clear cell), technical replicate 2 the deposit lists viability, normalised (%) = 32.5; active.
For NME2 (NME/NM23 nucleoside diphosphate kinase 2), rucaparib or vehicle Rucaparib, cell line OCI-C5x (clear cell), technical replicate 3, the values are viability, normalised (%) = 37.8; active.
NME2 (NME/NM23 nucleoside diphosphate kinase 2), rucaparib or vehicle Rucaparib, cell line OCI-P5x (serous), technical replicate 1 scored viability, normalised (%) = 34.8; active.
With NME2 (NME/NM23 nucleoside diphosphate kinase 2), rucaparib or vehicle Rucaparib, cell line OCI-P5x (serous), technical replicate 2, the values are viability, normalised (%) = 33.7; active.
NME2 (NME/NM23 nucleoside diphosphate kinase 2), rucaparib or vehicle Rucaparib, cell line OCI-P5x (serous), technical replicate 3 gave viability, normalised (%) = 62.3; active.
With NME2 (NME/NM23 nucleoside diphosphate kinase 2), rucaparib or vehicle Vehicle, cell line OCI-C5x (clear cell), technical replicate 1, the values are viability, normalised (%) = 31.7; active.
With NME2 (NME/NM23 nucleoside diphosphate kinase 2), rucaparib or vehicle Vehicle, cell line OCI-C5x (clear cell), technical replicate 2, the entry reads viability, normalised (%) = 33.7; active.
For NME2 (NME/NM23 nucleoside diphosphate kinase 2), rucaparib or vehicle Vehicle, cell line OCI-C5x (clear cell), technical replicate 3, the values are viability, normalised (%) = 41.9; active.
NME2 (NME/NM23 nucleoside diphosphate kinase 2), rucaparib or vehicle Vehicle, cell line OCI-P5x (serous), technical replicate 1 scored viability, normalised (%) = 64.3; active.
NME2 (NME/NM23 nucleoside diphosphate kinase 2), rucaparib or vehicle Vehicle, cell line OCI-P5x (serous), technical replicate 2 showed viability, normalised (%) = 57.2; active.
NME2 (NME/NM23 nucleoside diphosphate kinase 2), rucaparib or vehicle Vehicle, cell line OCI-P5x (serous), technical replicate 3 scored viability, normalised (%) = 119; inactive.
PIWIL4 (piwi like RNA-mediated gene silencing 4), rucaparib or vehicle Rucaparib, cell line OCI-C5x (clear cell), technical replicate 1 scored viability, normalised (%) = 51.1; active.
PIWIL4 (piwi like RNA-mediated gene silencing 4), rucaparib or vehicle Rucaparib, cell line OCI-C5x (clear cell), technical replicate 2 showed viability, normalised (%) = 48.5; active.
PIWIL4 (piwi like RNA-mediated gene silencing 4), rucaparib or vehicle Rucaparib, cell line OCI-C5x (clear cell), technical replicate 3 scored viability, normalised (%) = 29.3; active.
PIWIL4 (piwi like RNA-mediated gene silencing 4), rucaparib or vehicle Rucaparib, cell line OCI-P5x (serous), technical replicate 1 scored viability, normalised (%) = 61; active.
With PIWIL4 (piwi like RNA-mediated gene silencing 4), rucaparib or vehicle Rucaparib, cell line OCI-P5x (serous), technical replicate 2, the values are viability, normalised (%) = 43.5; active.
With PIWIL4 (piwi like RNA-mediated gene silencing 4), rucaparib or vehicle Rucaparib, cell line OCI-P5x (serous), technical replicate 3, the values are viability, normalised (%) = 61.2; active.
PIWIL4 (piwi like RNA-mediated gene silencing 4), rucaparib or vehicle Vehicle, cell line OCI-C5x (clear cell), technical replicate 1 gave viability, normalised (%) = 41.1; active.
For PIWIL4 (piwi like RNA-mediated gene silencing 4), rucaparib or vehicle Vehicle, cell line OCI-C5x (clear cell), technical replicate 2, the entry reads viability, normalised (%) = 58.6; active.
PIWIL4 (piwi like RNA-mediated gene silencing 4), rucaparib or vehicle Vehicle, cell line OCI-C5x (clear cell), technical replicate 3 showed viability, normalised (%) = 49.6; active.
For PIWIL4 (piwi like RNA-mediated gene silencing 4), rucaparib or vehicle Vehicle, cell line OCI-P5x (serous), technical replicate 1, the entry reads viability, normalised (%) = 57.6; active.
PIWIL4 (piwi like RNA-mediated gene silencing 4), rucaparib or vehicle Vehicle, cell line OCI-P5x (serous), technical replicate 2 scored viability, normalised (%) = 59.8; active.
PIWIL4 (piwi like RNA-mediated gene silencing 4), rucaparib or vehicle Vehicle, cell line OCI-P5x (serous), technical replicate 3 scored viability, normalised (%) = 74.5; active.

In a second layout: entries from further up.
Gene	rucaparib or vehicle	cell line	technical replicate	viability, normalised (%)	Call
NME2 (NME/NM23 nucleoside diphosphate kinase 2)	Vehicle	OCI-C5x (clear cell)	2	33.7	active
NME2 (NME/NM23 nucleoside diphosphate kinase 2)	Vehicle	OCI-C5x (clear cell)	3	41.9	active
NME2 (NME/NM23 nucleoside diphosphate kinase 2)	Vehicle	OCI-P5x (serous)	1	64.3	active
NME2 (NME/NM23 nucleoside diphosphate kinase 2)	Vehicle	OCI-P5x (serous)	2	57.2	active
NME2 (NME/NM23 nucleoside diphosphate kinase 2)	Vehicle	OCI-P5x (serous)	3	119	inactive

Next entries:
PLCB4 (phospholipase C beta 4), rucaparib or vehicle Rucaparib, cell line OCI-C5x (clear cell), technical replicate 1 gave viability, normalised (%) = 57.8; active.
PLCB4 (phospholipase C beta 4), rucaparib or vehicle Rucaparib, cell line OCI-C5x (clear cell), technical replicate 2 showed viability, normalised (%) = 46.1; active.
For PLCB4 (phospholipase C beta 4), rucaparib or vehicle Rucaparib, cell line OCI-C5x (clear cell), technical replicate 3, the values are viability, normalised (%) = 49.1; active.
PLCB4 (phospholipase C beta 4), rucaparib or vehicle Rucaparib, cell line OCI-P5x (serous), technical replicate 1 gave viability, normalised (%) = 59.2; active.
With PLCB4 (phospholipase C beta 4), rucaparib or vehicle Rucaparib, cell line OCI-P5x (serous), technical replicate 2, the entry reads viability, normalised (%) = 51.6; active.
With PLCB4 (phospholipase C beta 4), rucaparib or vehicle Rucaparib, cell line OCI-P5x (serous), technical replicate 3, the values are viability, normalised (%) = 48.2; active.
PLCB4 (phospholipase C beta 4), rucaparib or vehicle Vehicle, cell line OCI-C5x (clear cell), technical replicate 1 showed viability, normalised (%) = 60.5; active.
With PLCB4 (phospholipase C beta 4), rucaparib or vehicle Vehicle, cell line OCI-C5x (clear cell), technical replicate 2, the entry reads viability, normalised (%) = 46.7; active.
For PLCB4 (phospholipase C beta 4), rucaparib or vehicle Vehicle, cell line OCI-C5x (clear cell), technical replicate 3, the entry reads viability, normalised (%) = 54.1; active.
With PLCB4 (phospholipase C beta 4), rucaparib or vehicle Vehicle, cell line OCI-P5x (serous), technical replicate 1 the deposit lists viability, normalised (%) = 70.3; active.
With PLCB4 (phospholipase C beta 4), rucaparib or vehicle Vehicle, cell line OCI-P5x (serous), technical replicate 2, the values are viability, normalised (%) = 89.1; inactive.
PLCB4 (phospholipase C beta 4), rucaparib or vehicle Vehicle, cell line OCI-P5x (serous), technical replicate 3 scored viability, normalised (%) = 83.4; inactive.
